PubChem BioAssay AID1053208 – Peter MacCallum Cancer Centre | 2014
The whole screen tested about 17,000 reagents; shown is an unselected part. In the full data, 788 (4.7%) are marked active. 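Calls rest on z-score classes alone; an extra cut-off of viability at most 70% of control was not applied to them.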 Unmarked entries are inactive. Further read-outs or replicates are left out here. Reagent sequences are not shown.

- Aim: 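Synthetic lethal interactions between gene loss and doxorubicin in osteosarcoma cells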 (primary screen)
- Cell system: mouse osteosarcoma cells, early-passage culture from an engineered mouse model of fibroblastic bone tumour
- Reagent: siRNA pool against mouse genes, 40 nM
- Duration: about 120 h (48 h before drug, then 72 h with drug)
- Conditions: doxorubicin 100 nM for 72 h, roughly 30-40% inhibitory dose
- Measured: 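Luminescent ATP signal taken as viability with or without 100 nM doxorubicin for 72 h; mean of two wells set against non-targeting siRNA and turned into robust z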
- Scale: viability z-score with doxorubicin: higher = more viable cells under doxorubicin; viability z-score without drug: higher = more viable cells with knock-down alone
- Active means: 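a pool counts as active when its viability z-score with doxorubicin is -2 or below and its z-score without drug lies between -2 and 2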

With Slain2, how do the results read?
combined z-score class: no change with or without drug; viability z-score with doxorubicin: -1.35; viability z-score without drug: -0.51

What did the screen give for Chtf18?
combined z-score class: no change with or without drug; viability z-score with doxorubicin: -0.45; viability z-score without drug: -0.17

How did the screen score Ppie?
combined z-score class: low cell count with and without drug; viability z-score with doxorubicin: -2.02; viability z-score without drug: -2.19

With Oaf, what does the deposit list?
combined z-score class: no change with or without drug; viability z-score with doxorubicin: 0; viability z-score without drug: -0.34

For Specc1l, what was measured?
combined z-score class: no change with or without drug; viability z-score with doxorubicin: -0.34; viability z-score without drug: -1.52

What is on record for Adad1?
combined z-score class: no change with or without drug; viability z-score with doxorubicin: -0.45; viability z-score without drug: -0.84

With Stk4, what was measured?
combined z-score class: no change with or without drug; viability z-score with doxorubicin: 0.56; viability z-score without drug: 0.84

What is on record for Ipo7?
combined z-score class: no change with or without drug; viability z-score with doxorubicin: 0.9; viability z-score without drug: 0.67

For Crip1, how do the results read?
combined z-score class: no change with or without drug; viability z-score with doxorubicin: 0.22; viability z-score without drug: 0

What did the screen give for Slc25a12?
combined z-score class: low cell count with doxorubicin only (active); viability z-score with doxorubicin: -2.14; viability z-score without drug: 0.17

What did the screen give for Zfp352?
combined z-score class: no change with or without drug; viability z-score with doxorubicin: -0.45; viability z-score without drug: -0.17

What is on record for Zfp652?
combined z-score class: no change with or without drug; viability z-score with doxorubicin: 0; viability z-score without drug: 0.17

How did the screen score Fbl?
combined z-score class: low cell count with and without drug; viability z-score with doxorubicin: -2.7; viability z-score without drug: -3.54

What is on record for Abcc2?
combined z-score class: no change with or without drug; viability z-score with doxorubicin: 0.34; viability z-score without drug: -0.84

For Pura, what does the deposit list?
combined z-score class: no change with or without drug; viability z-score with doxorubicin: -1.35; viability z-score without drug: 0.34

Which result is listed for Mtus1?
combined z-score class: no change with or without drug; viability z-score with doxorubicin: -0.22; viability z-score without drug: 0.17

What did the screen give for Otop1?
combined z-score class: no change with or without drug; viability z-score with doxorubicin: -1.24; viability z-score without drug: 0

For Rfx1, what does the deposit list?
combined z-score class: no change with or without drug; viability z-score with doxorubicin: -0.45; viability z-score without drug: -0.17

Which result is listed for Spaca4?
combined z-score class: no change with or without drug; viability z-score with doxorubicin: 0.45; viability z-score without drug: 0.84

Records above with an active call (1):
Slc25a12: combined z-score class = low cell count with doxorubicin only (active); viability z-score with doxorubicin = -2.14; viability z-score without drug = 0.17
